Data: PMC8211912

B1: AtSYP32 (endogenous) (protein, UniProt Q9LK09 1-347)
chain: MSARHGQSSYRDRSDEFFKIVETLRRSIAPAPAANNVPYGNNRNDGARREDLINKSEFNKRASHIGLAINQTSQKLSKLAKLAKRTSVFDDPTQEIQELTVVIKQEISALNSALVDLQLFRSSQNDEGNNSRDRDKSTHSATVVDDLKYRLMDTTKEFKDVLTMRTENMKVHESRRQLFSSNASKESTNPFVRQRPLAAKAAASESVPLPWANGSSSSSSQLVPWKPGEGESSPLLQQSQQQQQQQQQQMVPLQDTYMQGRAEALHTVESTIHELSSIFTQLATMVSQQGEIAIRIDQNMEDTLANVEGAQSQLARYLNSISSNRWLMMKIFFVLIAFLMIFLFFVA
B2: AtSEC22 (endogenous) (protein, UniProt Q94AU2 1-218)
chain: MVKMTLIARVTDGLPLAEGLDDGRDLPDSDMYKQQVKALFKNLSRGQNDASRMSVETGPYVFHYIIEGRVCYLTMCDRSYPKKLAFQYLEDLKNEFERVNGPNIETAARPYAFIKFDTFIQKTKKLYQDTRTQRNIAKLNDELYEVHQIMTRNVQEVLGVGEKLDQVSEMSSRLTSESRIYADKAKDLNRQALIRKWAPVAIVFGVVFLLFWVKNKLW

Assays:
[1] = target: T1, TAP (myc)-tagged AtSEC22 (Arabidopsis thaliana) (UniProt Q94AU2); assay: affinity purification with mass spectrometry; Pull-down with an anti-c-myc epitope tag protein isolation kit (Miltenyi Biotec) from 2 g of two-week-old seedlings overexpressing the myc-tagged bait; beads analysed by shotgun LC-MS/MS
T1 sequence: B2 chain

[2] = target: T2, myc-tagged AtSYP32 (Arabidopsis thaliana) (UniProt Q9LK09); assay: as above
T2 sequence: B1 chain

| Binder | binding [1] | binding [2] |
| --- | --- | --- |
| B1 | binds | – |
| B2 | – | binds |

No constants are given. Whether binding was seen depends on the method and setting. Binding seen in cells or lysates may run through a third protein. A yes stands for co-enrichment or nearness to the bait. Other partners may have been found. Sequences can lack the tags named with a protein.
